# In PubChem BioAssay AID248 (DTP/NCI, 2004):
# The list does not hold the whole screen: it gathers tests that were run many times, whatever their T/C, doses with no T/C, and many T/C values between a quarter and a half above the control. Other doses and runs of a compound stand elsewhere. T/C is the treated group as % of the vehicle group. Some entries give survivors of the animals treated and no T/C: the source holds a T/C of zero for them, seemingly a mark for toxic or unscored doses. Some doses without a T/C left all or most animals alive at the check, yet need not have been tolerated: the source hardly ever lists a survival T/C far under the control, and the zero likely stands for such cases as well. Survivors were counted at the toxicity check, usually on the fifth day, unless a day is given; later deaths do not show. Schedules are NCI's codes, taken here to give the interval after Q, in days (D) or hours (H), and the number of doses after X. Some entries were tested several times; the values are given in rising order. Where survival is the endpoint, this PubChem deposit counts one and a half times the control or more as active, and values a quarter to a half above the control carry no call in these data; other NCI protocols may use other cut-offs. Additions like (4×) give the number of equal values in this list. Some schedules carry Z or #; the key to these is not given. Some T/C values are followed by the survivors on the day toxicity was checked, most often the fifth; where none is given, no animal had died by that day.
# Tested on: L1210 leukemia ip in BDF1 mice, survival T/C
# Assay: NCI In Vivo Anticancer Drug Screen. Data for tumor model L1210 Leukemia (intraperitoneal) in B6D2F1 (BDF1) mice
# Settings: higher T/C = longer survival
# [1] = T/C endpoint: mean survival time, dose: 2400.0 mg/kg/injection, schedule: Q01DX009 (ip), vehicle: saline
smiles,measurement,setting,value
C[C@H](N)C(=O)N[C@@H]1[C@H]2C(=C(O)C[C@@H](O)[C@@H]2O)C(=O)O[C@@H]1C,T/C,"T/C endpoint: mean survival time, dose: 75.0 mg/kg/injection, schedule: Q01DX010 (ip), vehicle: saline",127 % of control [5 of 6 alive]
same,T/C,"T/C endpoint: mean survival time, dose: 100.0 mg/kg/injection, schedule: Q01DX Z (ip), vehicle: saline",127 % of control
same,T/C,"T/C endpoint: mean survival time, dose: 100.0 mg/kg/injection, schedule: Q#A X Z (ip), vehicle: saline",132 % of control
same,T/C,"T/C endpoint: mean survival time, dose: 140.0 mg/kg/injection, schedule: Q01DX015 (ip), vehicle: saline",130 % of control
same,T/C,"T/C endpoint: mean survival time, dose: 150.0 mg/kg/injection, schedule: Q01DX009 (ip), vehicle: saline",135 % of control
same,T/C,"T/C endpoint: mean survival time, dose: 150.0 mg/kg/injection, schedule: Q01DX010 (ip), vehicle: saline","121, 123, 125, 129, 130, 133 % of control"
same,T/C,"T/C endpoint: mean survival time, dose: 200.0 mg/kg/injection, schedule: Q01DX Z (ip), vehicle: saline",139 % of control
same,T/C,"T/C endpoint: mean survival time, dose: 211.0 mg/kg/injection, schedule: Q01DX015 (ip), vehicle: saline",136 and 137 % of control
same,T/C,"T/C endpoint: mean survival time, dose: 222.0 mg/kg/injection, schedule: Q02DX004 (ip), vehicle: saline",125 % of control
same,T/C,"T/C endpoint: mean survival time, dose: 250.0 mg/kg/injection, schedule: Q01DX Z (ip), vehicle: saline",125 % of control
same,T/C,"T/C endpoint: mean survival time, dose: 300.0 mg/kg/injection, schedule: Q01DX009 (ip), vehicle: saline, evaluated on day 30","131, 135, 140, 142 % of control"
same,T/C,"T/C endpoint: mean survival time, dose: 300.0 mg/kg/injection, schedule: Q01DX009 (ip), vehicle: saline, evaluated on day 60",139 % of control
same,T/C,"T/C endpoint: mean survival time, dose: 300.0 mg/kg/injection, schedule: Q01DX010 (ip), vehicle: saline","132 (2×), 140, 142 % of control"
same,T/C,"T/C endpoint: mean survival time, dose: 300.0 mg/kg/injection, schedule: Q01DX015 (ip), vehicle: saline",142 % of control
same,T/C,"T/C endpoint: mean survival time, dose: 300.0 mg/kg/injection, schedule: Q01DX Z (ip), vehicle: saline",143 % of control
same,T/C,"T/C endpoint: mean survival time, dose: 300.0 mg/kg/injection, schedule: Q03DX Z (ip), vehicle: saline",125 % of control
same,T/C,"T/C endpoint: mean survival time, dose: 400.0 mg/kg/injection, schedule: Q01DX Z (im), vehicle: saline",145 % of control
same,T/C,"T/C endpoint: mean survival time, dose: 400.0 mg/kg/injection, schedule: Q01DX Z (sc), vehicle: saline",137 % of control
same,T/C,"T/C endpoint: mean survival time, dose: 400.0 mg/kg/injection, schedule: Q#A X Z (ip), vehicle: saline",141 % of control
same,T/C,"T/C endpoint: mean survival time, dose: 500.0 mg/kg/injection, schedule: Q01DX Z (ip), vehicle: saline",145 % of control
same,T/C,"T/C endpoint: mean survival time, dose: 500.0 mg/kg/injection, schedule: Q02DX004 (ip), vehicle: saline",126 % of control
same,T/C,"T/C endpoint: mean survival time, dose: 600.0 mg/kg/injection, schedule: Q01DX009 (ip), vehicle: saline, evaluated on day 30","131, 148, 151 % of control (2×)"
same,T/C,"T/C endpoint: mean survival time, dose: 600.0 mg/kg/injection, schedule: Q01DX009 (ip), vehicle: saline, evaluated on day 60",157 % of control
same,T/C,"T/C endpoint: mean survival time, dose: 600.0 mg/kg/injection, schedule: Q01DX010 (ip), vehicle: saline","159, 162, 166, 181 % of control"
same,T/C,"T/C endpoint: mean survival time, dose: 600.0 mg/kg/injection, schedule: Q03DX Z (ip), vehicle: saline",135 % of control
same,T/C,"T/C endpoint: mean survival time, dose: 750.0 mg/kg/injection, schedule: Q02DX004 (ip), vehicle: saline",129 % of control
same,survivor count,"T/C endpoint: mean survival time, dose: 800.0 mg/kg/injection, schedule: Q01DX006 (iv), vehicle: saline",2 of 6
same,T/C,"T/C endpoint: mean survival time, dose: 800.0 mg/kg/injection, schedule: Q## X032 (ip), vehicle: saline",126 % of control
same,T/C,"T/C endpoint: mean survival time, dose: 1000.0 mg/kg/injection, schedule: Q01DX Z (ip), vehicle: saline",145 % of control
same,T/C,"T/C endpoint: mean survival time, dose: 1080.0 mg/kg/injection, schedule: Q01DX015 (ip), vehicle: saline",135 % of control
same,T/C,"T/C endpoint: mean survival time, dose: 1125.0 mg/kg/injection, schedule: Q02DX004 (ip), vehicle: saline",146 % of control
same,T/C,"T/C endpoint: mean survival time, dose: 1200.0 mg/kg/injection, schedule: Q01DX005 (ip), vehicle: saline",127 % of control
same,T/C,"T/C endpoint: mean survival time, dose: 1200.0 mg/kg/injection, schedule: Q01DX009 (ip), vehicle: saline, evaluated on day 30","142, 144, 162, 171 % of control"
same,T/C,"T/C endpoint: mean survival time, dose: 1200.0 mg/kg/injection, schedule: Q01DX009 (ip), vehicle: saline, evaluated on day 60",171 % of control
same,T/C,"T/C endpoint: mean survival time, dose: 1200.0 mg/kg/injection, schedule: Q01DX009 (sc), vehicle: saline",127 % of control [9 of 10 alive]
same,T/C,"T/C endpoint: mean survival time, dose: 1200.0 mg/kg/injection, schedule: Q01DX010 (ip), vehicle: saline","93, 131, 137, 159 % of control"
same,T/C,"T/C endpoint: mean survival time, dose: 1200.0 mg/kg/injection, schedule: Q03DX Z (ip), vehicle: saline",143 % of control [5 of 6 alive]
same,T/C,"T/C endpoint: mean survival time, dose: 1200.0 mg/kg/injection, schedule: Q03HX024 (ip), vehicle: saline",134 % of control
same,T/C,"T/C endpoint: mean survival time, dose: 1200.0 mg/kg/injection, schedule: Q04DX003 (ip), vehicle: saline",130 % of control
same,T/C,"T/C endpoint: mean survival time, dose: 1200.0 mg/kg/injection, schedule: Q08DX002 (ip), vehicle: saline",125 % of control
same,survivor count,"T/C endpoint: mean survival time, dose: 1600.0 mg/kg/injection, schedule: Q01DX006 (iv), vehicle: saline",2 of 6
same,T/C,"T/C endpoint: mean survival time, dose: 1600.0 mg/kg/injection, schedule: Q01DX Z (ip), vehicle: saline",129 % of control
same,T/C,"T/C endpoint: mean survival time, dose: 1600.0 mg/kg/injection, schedule: Q01DX Z (sc), vehicle: saline",130 % of control
same,T/C,"T/C endpoint: mean survival time, dose: 1800.0 mg/kg/injection, schedule: Q## X032 (ip), vehicle: saline",125 and 129 % of control
same,T/C,"T/C endpoint: mean survival time, dose: 2000.0 mg/kg/injection, schedule: Q## X004 (ip), vehicle: saline",139 % of control
same,survivor count,"T/C endpoint: mean survival time, dose: 2237.0 mg/kg/injection, schedule: Q01DX015 (ip), vehicle: carboxymethylcellulose (CMC)",5 of 8
same,survivor count,"T/C endpoint: mean survival time, dose: 2400.0 mg/kg/injection, schedule: Q01DX005 (ip), vehicle: saline",3 of 10
same,T/C,[1],137 % of control [5 of 6 alive]
same,survivor count,[1],"1 of 6, 3 of 6, 5 of 10, 4 of 6"
same,survivor count,"T/C endpoint: mean survival time, dose: 2400.0 mg/kg/injection, schedule: Q01DX009 (sc), vehicle: saline",10 of 10
same,survivor count,"T/C endpoint: mean survival time, dose: 2400.0 mg/kg/injection, schedule: Q01DX010 (ip), vehicle: saline",0 of 6 and 2 of 6
same,T/C,"T/C endpoint: mean survival time, dose: 2400.0 mg/kg/injection, schedule: Q03DX Z (ip), vehicle: saline",141 % of control
same,T/C,"T/C endpoint: mean survival time, dose: 2400.0 mg/kg/injection, schedule: Q03HX024 (ip), vehicle: saline",145 % of control
same,T/C,"T/C endpoint: mean survival time, dose: 2400.0 mg/kg/injection, schedule: Q04DX003 (ip), vehicle: saline",139 % of control
same,T/C,"T/C endpoint: mean survival time, dose: 2696.0 mg/kg/injection, schedule: Q## X032 (ip), vehicle: saline",131 % of control
same,survivor count,"T/C endpoint: mean survival time, dose: 2800.0 mg/kg/injection, schedule: Q01DX001 (ip), vehicle: saline",3 of 6
same,T/C,"T/C endpoint: mean survival time, dose: 3082.0 mg/kg/injection, schedule: Q01DX001 (ip), vehicle: saline",125 % of control
same,survivor count,"T/C endpoint: mean survival time, dose: 3696.0 mg/kg/injection, schedule: Q01DX001 (ip), vehicle: saline",4 of 10 and 2 of 4
same,T/C,"T/C endpoint: mean survival time, dose: 4000.0 mg/kg/injection, schedule: Q## X032 (ip), vehicle: saline",139 % of control
same,survivor count,"T/C endpoint: mean survival time, dose: 4500.0 mg/kg/injection, schedule: Q01DX001 (ip), vehicle: saline",0 of 10
same,survivor count,"T/C endpoint: mean survival time, dose: 4600.0 mg/kg/injection, schedule: Q01DX001 (ip), vehicle: saline",0 of 10
same,survivor count,"T/C endpoint: mean survival time, dose: 4800.0 mg/kg/injection, schedule: Q01DX001 (sc), vehicle: saline",5 of 10
same,survivor count,"T/C endpoint: mean survival time, dose: 6750.0 mg/kg/injection, schedule: Q01DX001 (ip), vehicle: saline",0 of 10
same,T/C,"T/C endpoint: median survival time, dose: 150.0 mg/kg/injection, schedule: Q01DX009 (ip), vehicle: saline",130 % of control
same,T/C,"T/C endpoint: median survival time, dose: 300.0 mg/kg/injection, schedule: Q01DX009 (ip), vehicle: saline",148 % of control
same,T/C,"T/C endpoint: median survival time, dose: 1064.0 mg/kg/injection, schedule: Q04DX003 (ip), vehicle: saline",126 % of control
same,survivor count,"T/C endpoint: median survival time, dose: 2400.0 mg/kg/injection, schedule: Q01DX009 (ip), vehicle: saline",4 of 6
same,T/C,"T/C endpoint: median survival time, dose: 2428.0 mg/kg/injection, schedule: Q04DX003 (ip), vehicle: saline",136 % of control
CCCCSP(SCCCC)N1CCCCC1,survivor count,"T/C endpoint: mean survival time, dose: 400.0 mg/kg/injection, schedule: Q04DX003 (ip), vehicle: saline",4 of 6
CCCCOC(=O)CC(=O)OCCCC,survivor count,"T/C endpoint: mean survival time, dose: 200.0 mg/kg/injection, schedule: Q01DX009 (ip), vehicle: Klucel (hydroxypropylcellulose) (HPC)",3 of 6
O=S1(=O)C=C2CCCCC21 (configuration not stated),survivor count,"T/C endpoint: mean survival time, dose: 150.0 mg/kg/injection, schedule: Q01DX001 (ip), vehicle: carboxymethylcellulose (CMC)",0 of 6
same,survivor count,"T/C endpoint: mean survival time, dose: 300.0 mg/kg/injection, schedule: Q01DX001 (ip), vehicle: carboxymethylcellulose (CMC)",0 of 6
